The other results are listed elsewhere or left out.
compound: CNC(=O)c1ccc(Nc2ncc(C(F)(F)F)c(NCc3nccnc3N(C)S(C)(=O)=O)n2)cc1 [defactinib]; test: log2 fold change, soluble protein after heating vs DMSO (PISA); higher = thermal stabilisation; K562 cells, 10 uM, 30 min; active = over 0.2 and 3.5 SD of the protein, either way, in both replicates (recomputed)
In short: (§1)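 Soluble protein was quantified by TMTpro 16plex LC-MS/MS after channel sums were equalised. It was obtained as the supernatant after 21,000xg for 90 min from pooled aliquots of K562 cells (2×10^6 cells/mL, 10 μM compound, 30 min) heated for 3 min across 48°C-58°C and extracted in PBS with 0.5% NP-40 at 4°C. Thermal stability values are relative to control samples and come from duplicates. They are given as log2 fold changes.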

The chains behind the UniProt entries cited, without tags or fusion partners. Where a name states a change or a piece, a line headed by the entry shows the natural chain unless it says otherwise.
UniProt P49748: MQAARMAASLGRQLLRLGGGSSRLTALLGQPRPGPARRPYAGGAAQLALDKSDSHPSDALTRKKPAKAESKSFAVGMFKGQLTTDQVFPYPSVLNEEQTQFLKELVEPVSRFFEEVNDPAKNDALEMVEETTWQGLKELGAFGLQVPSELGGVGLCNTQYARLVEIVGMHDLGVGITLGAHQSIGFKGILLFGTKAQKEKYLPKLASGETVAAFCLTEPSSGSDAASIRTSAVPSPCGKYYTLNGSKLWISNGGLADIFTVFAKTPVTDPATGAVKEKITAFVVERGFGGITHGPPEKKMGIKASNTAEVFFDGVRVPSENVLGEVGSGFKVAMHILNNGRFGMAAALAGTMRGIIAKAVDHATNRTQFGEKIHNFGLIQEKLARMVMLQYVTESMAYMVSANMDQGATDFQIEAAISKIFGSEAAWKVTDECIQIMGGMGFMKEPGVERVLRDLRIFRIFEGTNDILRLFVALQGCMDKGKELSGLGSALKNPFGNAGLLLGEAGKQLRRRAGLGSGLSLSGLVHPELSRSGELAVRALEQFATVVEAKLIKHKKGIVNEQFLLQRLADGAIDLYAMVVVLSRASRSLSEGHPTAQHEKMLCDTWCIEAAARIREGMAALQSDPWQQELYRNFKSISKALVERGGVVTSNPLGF
UniProt Q6PD74: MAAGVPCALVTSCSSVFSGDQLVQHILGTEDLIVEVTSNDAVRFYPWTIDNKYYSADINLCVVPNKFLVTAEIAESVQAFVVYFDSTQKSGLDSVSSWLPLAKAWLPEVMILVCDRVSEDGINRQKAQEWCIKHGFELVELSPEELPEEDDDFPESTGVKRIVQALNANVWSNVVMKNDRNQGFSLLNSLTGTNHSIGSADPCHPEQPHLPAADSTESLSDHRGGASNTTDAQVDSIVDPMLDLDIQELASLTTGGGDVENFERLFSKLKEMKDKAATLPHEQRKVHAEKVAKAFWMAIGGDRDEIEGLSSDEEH
UniProt P11117: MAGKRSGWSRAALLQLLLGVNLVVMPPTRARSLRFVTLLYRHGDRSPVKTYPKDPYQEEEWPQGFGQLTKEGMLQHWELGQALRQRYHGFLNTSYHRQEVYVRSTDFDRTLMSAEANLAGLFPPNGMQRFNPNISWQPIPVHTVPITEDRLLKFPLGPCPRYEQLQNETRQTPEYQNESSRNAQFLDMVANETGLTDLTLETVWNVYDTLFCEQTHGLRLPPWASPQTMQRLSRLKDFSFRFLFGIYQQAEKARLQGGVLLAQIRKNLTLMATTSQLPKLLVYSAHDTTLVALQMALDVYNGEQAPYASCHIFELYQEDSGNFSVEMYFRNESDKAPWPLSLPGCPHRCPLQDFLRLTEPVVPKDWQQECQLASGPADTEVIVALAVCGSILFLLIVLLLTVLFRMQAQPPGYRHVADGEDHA
UniProt Q8NFV4: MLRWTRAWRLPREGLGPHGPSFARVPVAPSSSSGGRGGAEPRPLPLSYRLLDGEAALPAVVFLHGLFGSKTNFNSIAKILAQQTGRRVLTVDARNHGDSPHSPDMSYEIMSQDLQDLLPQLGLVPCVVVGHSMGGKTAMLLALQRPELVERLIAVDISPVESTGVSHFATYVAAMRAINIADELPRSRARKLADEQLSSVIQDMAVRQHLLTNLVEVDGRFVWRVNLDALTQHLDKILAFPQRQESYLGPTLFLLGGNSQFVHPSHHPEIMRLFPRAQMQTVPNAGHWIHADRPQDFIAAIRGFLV
UniProt O95870: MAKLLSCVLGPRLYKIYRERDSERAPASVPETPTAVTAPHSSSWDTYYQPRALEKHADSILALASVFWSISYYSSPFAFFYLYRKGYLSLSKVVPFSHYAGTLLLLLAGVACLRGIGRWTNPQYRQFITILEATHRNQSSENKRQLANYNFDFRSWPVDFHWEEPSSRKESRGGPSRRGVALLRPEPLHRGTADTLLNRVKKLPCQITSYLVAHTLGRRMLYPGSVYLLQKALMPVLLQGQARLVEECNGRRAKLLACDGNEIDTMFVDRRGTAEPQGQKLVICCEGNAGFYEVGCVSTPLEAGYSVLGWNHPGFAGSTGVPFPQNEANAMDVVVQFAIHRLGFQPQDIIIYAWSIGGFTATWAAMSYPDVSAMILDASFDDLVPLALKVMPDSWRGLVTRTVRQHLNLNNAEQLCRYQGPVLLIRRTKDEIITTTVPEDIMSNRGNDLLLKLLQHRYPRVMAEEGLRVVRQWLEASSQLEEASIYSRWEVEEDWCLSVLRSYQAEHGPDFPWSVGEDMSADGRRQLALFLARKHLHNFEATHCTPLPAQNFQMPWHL
UniProt P14621: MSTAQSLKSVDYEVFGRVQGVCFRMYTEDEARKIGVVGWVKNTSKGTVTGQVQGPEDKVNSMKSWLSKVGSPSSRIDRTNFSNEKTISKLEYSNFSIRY
UniProt Q2M2I8: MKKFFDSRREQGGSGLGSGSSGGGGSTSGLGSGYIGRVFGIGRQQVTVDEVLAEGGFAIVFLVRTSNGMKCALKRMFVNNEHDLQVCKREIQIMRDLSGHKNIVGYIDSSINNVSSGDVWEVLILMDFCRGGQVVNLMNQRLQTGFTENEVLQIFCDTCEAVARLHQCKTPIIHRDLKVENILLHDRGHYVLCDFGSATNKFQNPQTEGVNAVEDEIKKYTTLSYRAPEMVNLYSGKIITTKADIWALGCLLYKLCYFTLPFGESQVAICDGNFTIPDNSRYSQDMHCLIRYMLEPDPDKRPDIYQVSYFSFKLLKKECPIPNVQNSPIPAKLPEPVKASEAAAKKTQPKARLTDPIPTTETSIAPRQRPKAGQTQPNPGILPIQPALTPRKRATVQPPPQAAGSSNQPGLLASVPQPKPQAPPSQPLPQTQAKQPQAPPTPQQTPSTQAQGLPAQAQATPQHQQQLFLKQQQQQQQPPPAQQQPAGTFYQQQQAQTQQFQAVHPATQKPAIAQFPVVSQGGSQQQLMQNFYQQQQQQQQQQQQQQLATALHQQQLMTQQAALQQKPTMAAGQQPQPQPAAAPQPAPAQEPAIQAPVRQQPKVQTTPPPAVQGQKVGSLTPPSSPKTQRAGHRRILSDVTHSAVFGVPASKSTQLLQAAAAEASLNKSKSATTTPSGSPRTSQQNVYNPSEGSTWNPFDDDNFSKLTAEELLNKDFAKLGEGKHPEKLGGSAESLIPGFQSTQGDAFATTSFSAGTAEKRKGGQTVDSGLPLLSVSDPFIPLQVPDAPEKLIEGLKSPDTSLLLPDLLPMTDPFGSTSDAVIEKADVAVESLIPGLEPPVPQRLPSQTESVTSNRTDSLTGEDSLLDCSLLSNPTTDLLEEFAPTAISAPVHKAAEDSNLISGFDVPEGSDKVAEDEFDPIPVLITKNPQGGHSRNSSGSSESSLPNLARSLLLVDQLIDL
UniProt Q9BTE6: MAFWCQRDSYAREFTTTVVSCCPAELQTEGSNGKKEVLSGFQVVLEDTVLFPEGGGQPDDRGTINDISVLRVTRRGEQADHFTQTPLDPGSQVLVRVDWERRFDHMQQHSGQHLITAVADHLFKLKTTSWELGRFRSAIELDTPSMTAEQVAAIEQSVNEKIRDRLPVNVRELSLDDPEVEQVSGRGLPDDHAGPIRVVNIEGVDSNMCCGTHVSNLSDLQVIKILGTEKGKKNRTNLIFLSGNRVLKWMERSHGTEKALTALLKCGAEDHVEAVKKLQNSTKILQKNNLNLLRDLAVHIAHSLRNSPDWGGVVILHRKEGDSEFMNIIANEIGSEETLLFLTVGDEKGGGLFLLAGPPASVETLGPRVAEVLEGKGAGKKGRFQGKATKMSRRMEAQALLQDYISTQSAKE
UniProt Q5JTZ9, whole entry, looked up: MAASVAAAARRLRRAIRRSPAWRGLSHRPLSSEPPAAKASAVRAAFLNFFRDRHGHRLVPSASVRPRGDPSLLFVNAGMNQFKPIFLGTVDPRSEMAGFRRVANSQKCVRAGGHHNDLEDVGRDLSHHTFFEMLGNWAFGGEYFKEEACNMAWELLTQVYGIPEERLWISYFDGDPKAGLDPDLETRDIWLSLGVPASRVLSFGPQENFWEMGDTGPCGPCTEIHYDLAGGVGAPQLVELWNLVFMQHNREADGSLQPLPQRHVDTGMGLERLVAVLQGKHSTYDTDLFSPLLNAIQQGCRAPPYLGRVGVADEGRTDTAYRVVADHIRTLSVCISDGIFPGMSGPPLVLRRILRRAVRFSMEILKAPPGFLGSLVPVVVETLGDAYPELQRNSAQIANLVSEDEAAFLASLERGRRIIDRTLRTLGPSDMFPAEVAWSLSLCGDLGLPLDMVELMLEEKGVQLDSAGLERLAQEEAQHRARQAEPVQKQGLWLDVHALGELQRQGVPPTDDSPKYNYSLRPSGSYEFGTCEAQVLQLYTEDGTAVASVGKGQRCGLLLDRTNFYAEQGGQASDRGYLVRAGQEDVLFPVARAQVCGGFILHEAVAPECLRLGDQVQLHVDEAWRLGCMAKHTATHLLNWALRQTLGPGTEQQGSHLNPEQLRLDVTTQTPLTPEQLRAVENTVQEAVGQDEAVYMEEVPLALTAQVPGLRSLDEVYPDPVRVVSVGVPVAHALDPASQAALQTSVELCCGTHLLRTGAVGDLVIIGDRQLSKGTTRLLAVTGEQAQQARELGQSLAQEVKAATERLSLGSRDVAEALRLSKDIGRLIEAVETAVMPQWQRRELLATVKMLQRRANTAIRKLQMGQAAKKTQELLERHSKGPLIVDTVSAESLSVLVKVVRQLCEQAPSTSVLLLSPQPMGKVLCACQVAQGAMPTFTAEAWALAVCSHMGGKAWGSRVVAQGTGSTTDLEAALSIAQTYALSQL
UniProt Q9ULC5: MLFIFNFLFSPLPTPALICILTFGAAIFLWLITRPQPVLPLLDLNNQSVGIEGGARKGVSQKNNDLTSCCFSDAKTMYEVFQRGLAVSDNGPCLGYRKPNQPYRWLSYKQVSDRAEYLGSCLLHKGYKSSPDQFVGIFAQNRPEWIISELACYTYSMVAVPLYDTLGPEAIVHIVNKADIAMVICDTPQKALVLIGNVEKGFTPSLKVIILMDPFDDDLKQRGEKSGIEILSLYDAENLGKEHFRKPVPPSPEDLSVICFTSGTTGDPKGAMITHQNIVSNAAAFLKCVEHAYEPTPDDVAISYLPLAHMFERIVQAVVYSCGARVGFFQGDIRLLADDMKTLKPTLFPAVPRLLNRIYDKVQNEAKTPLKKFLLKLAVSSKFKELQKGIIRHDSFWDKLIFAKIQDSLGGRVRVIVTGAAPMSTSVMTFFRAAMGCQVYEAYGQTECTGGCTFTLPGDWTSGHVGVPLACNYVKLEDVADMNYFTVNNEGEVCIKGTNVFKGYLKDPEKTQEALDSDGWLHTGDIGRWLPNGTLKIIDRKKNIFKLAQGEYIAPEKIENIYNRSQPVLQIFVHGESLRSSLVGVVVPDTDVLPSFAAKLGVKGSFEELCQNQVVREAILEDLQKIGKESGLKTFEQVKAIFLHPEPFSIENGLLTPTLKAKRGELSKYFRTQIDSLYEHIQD
UniProt P00519, whole entry, looked up: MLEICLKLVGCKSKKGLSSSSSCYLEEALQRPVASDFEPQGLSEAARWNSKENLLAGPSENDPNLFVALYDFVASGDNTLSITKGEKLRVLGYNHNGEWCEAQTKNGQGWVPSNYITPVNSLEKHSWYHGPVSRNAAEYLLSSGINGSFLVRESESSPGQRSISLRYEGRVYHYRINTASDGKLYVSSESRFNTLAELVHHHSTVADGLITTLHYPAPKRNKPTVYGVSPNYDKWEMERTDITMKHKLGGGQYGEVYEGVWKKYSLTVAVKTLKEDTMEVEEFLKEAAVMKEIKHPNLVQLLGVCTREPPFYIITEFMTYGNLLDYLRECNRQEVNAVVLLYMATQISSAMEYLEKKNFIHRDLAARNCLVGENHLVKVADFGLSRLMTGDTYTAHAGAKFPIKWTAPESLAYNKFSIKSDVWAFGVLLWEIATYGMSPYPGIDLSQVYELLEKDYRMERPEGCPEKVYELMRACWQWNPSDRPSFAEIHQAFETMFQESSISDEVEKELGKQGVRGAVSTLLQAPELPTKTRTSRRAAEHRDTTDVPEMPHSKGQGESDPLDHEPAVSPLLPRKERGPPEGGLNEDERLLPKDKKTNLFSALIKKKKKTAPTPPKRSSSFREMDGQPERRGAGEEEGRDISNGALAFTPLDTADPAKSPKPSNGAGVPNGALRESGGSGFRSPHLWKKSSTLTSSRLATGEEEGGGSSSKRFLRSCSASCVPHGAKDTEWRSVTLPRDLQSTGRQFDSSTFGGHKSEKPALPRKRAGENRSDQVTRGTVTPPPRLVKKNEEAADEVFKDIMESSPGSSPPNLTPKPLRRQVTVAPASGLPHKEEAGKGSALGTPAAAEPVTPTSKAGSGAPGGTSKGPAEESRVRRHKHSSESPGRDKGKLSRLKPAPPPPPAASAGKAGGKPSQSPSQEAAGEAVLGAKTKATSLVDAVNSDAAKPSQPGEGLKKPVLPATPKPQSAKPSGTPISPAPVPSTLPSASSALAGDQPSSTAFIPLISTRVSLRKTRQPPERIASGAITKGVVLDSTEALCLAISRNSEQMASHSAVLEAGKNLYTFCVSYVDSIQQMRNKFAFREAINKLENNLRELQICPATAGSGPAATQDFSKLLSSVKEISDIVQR

With ACSF3 (UniProt Q4G176) as the target, how does the log2 fold change read?
Its log2 fold change is inactive: -0.058.

For AAMP (UniProt Q13685), which log2 fold change is on record?
Its log2 fold change is inactive: -0.102.

ACADVL isoform 3 (UniProt P49748) was tested. Which log2 fold change did it give?
Its log2 fold change is inactive: -0.011.

ACSL1 (UniProt P33121) was tested. Which log2 fold change did it give?
Its log2 fold change is inactive: -0.025.

Which log2 fold change does the source give for ACOX3 (UniProt O15254) here?
The log2 fold change was inactive: -0.063.

ABCB4 (UniProt P21439) was tested. Which log2 fold change did it give?
Its log2 fold change is inactive: 0.044.

Which log2 fold change does the source give for ABCA3 (UniProt Q99758) here?
The log2 fold change was inactive: 0.108.

Which log2 fold change does the source give for ACVR1 (UniProt Q04771) here?
Its log2 fold change is inactive: -0.095.

For AAGAB (UniProt Q6PD74), which log2 fold change is on record?
Its log2 fold change is inactive: -0.187.

Which log2 fold change does the source give for ACP2 (UniProt P11117) here?
Its log2 fold change is inactive: 0.01.

With ACACB (UniProt O00763) as the target, how does the log2 fold change read?
The log2 fold change was inactive: 0.016.

For AAR2 (UniProt Q9Y312), which log2 fold change is on record?
Its log2 fold change is inactive: 0.063.

ACP1 (UniProt P24666) was tested. Which log2 fold change did it give?
The log2 fold change was inactive: -0.044.

Which log2 fold change does the source give for ACO2 (UniProt Q99798) here?
The log2 fold change was inactive: -0.083.

How did the log2 fold change turn out when ACIN1 (UniProt Q9UKV3) was run?
Its log2 fold change is active: -0.253.

How did the log2 fold change turn out when ABHD11 (UniProt Q8NFV4) was run?
Its log2 fold change is inactive: -0.114.

How did the log2 fold change turn out when ABHD16A (UniProt O95870) was run?
The log2 fold change was inactive: -0.065.

Which log2 fold change does the source give for ACYP2 (UniProt P14621) here?
Its log2 fold change is inactive: 0.

With ACADM isoform 2 (UniProt P11310) as the target, how does the log2 fold change read?
Its log2 fold change is inactive: -0.016.

With ABITRAM (UniProt Q9NX38) as the target, how does the log2 fold change read?
Its log2 fold change is inactive: -0.164.

With AAK1 (UniProt Q2M2I8) as the target, how does the log2 fold change read?
The log2 fold change was inactive: -0.106.

With AARSD1 isoform 3 (UniProt Q9BTE6) as the target, how does the log2 fold change read?
The log2 fold change was inactive: -0.071.

Which log2 fold change does the source give for ACTBL2 (UniProt Q562R1) here?
The log2 fold change was inactive: 0.432.

Which log2 fold change does the source give for ACTG1 (UniProt K7EM38) here?
The log2 fold change was inactive: -0.25.

Which log2 fold change does the source give for ACTR1B (UniProt P42025) here?
The log2 fold change was inactive: -0.005.

For AARS2 (UniProt Q5JTZ9), which log2 fold change is on record?
Its log2 fold change is inactive: -0.027.

For A2ML1 (UniProt A8K2U0), which log2 fold change is on record?
The log2 fold change was inactive: 0.065.

For ACSL5 isoform 3 (UniProt Q9ULC5), which log2 fold change is on record?
The log2 fold change was inactive: -0.063.

Which log2 fold change does the source give for ACSS1 (UniProt Q9NUB1) here?
Its log2 fold change is inactive: -0.04.

ABL1 isoform 2 (UniProt P00519) was tested. Which log2 fold change did it give?
The log2 fold change was inactive: -0.026.

Which log2 fold change does the source give for ABRAXAS1 (UniProt Q6UWZ7) here?
Its log2 fold change is inactive: 0.19.

Which log2 fold change does the source give for ACAP2 (UniProt Q15057) here?
Its log2 fold change is inactive: -0.032.

Which log2 fold change does the source give for ACAA2 (UniProt K7ER88) here?
The log2 fold change was inactive: -0.181.

compound: CNCc1ccc(-c2[nH]c3cc(F)cc4c3c2CCNC4=O)cc1 [rucaparib]; test: as above
In short: as §1

How did the log2 fold change turn out when ACSF3 (UniProt Q4G176) was run?
The log2 fold change was inactive: -0.051.

How did the log2 fold change turn out when ACAT1, A0A5F9ZHJ0 was run?
Its log2 fold change is inactive: -0.386.

How did the log2 fold change turn out when AAMP (UniProt Q13685) was run?
The log2 fold change was inactive: 0.054.

For ACADVL isoform 3 (UniProt P49748), which log2 fold change is on record?
The log2 fold change was inactive: -0.007.

How did the log2 fold change turn out when ACSL1 (UniProt P33121) was run?
Its log2 fold change is inactive: -0.021.

How did the log2 fold change turn out when ACOX3 (UniProt O15254) was run?
The log2 fold change was inactive: -0.313.

Which log2 fold change does the source give for ABCB4 (UniProt P21439) here?
The log2 fold change was inactive: 0.052.

ABCA3 (UniProt Q99758) was tested. Which log2 fold change did it give?
The log2 fold change was inactive: 0.11.

ACVR1 (UniProt Q04771) was tested. Which log2 fold change did it give?
Its log2 fold change is inactive: 0.029.

With AAGAB (UniProt Q6PD74) as the target, how does the log2 fold change read?
Its log2 fold change is inactive: 0.055.

Which log2 fold change does the source give for ACP2 (UniProt P11117) here?
The log2 fold change was inactive: -0.089.

How did the log2 fold change turn out when ABHD6 (UniProt Q9BV23) was run?
The log2 fold change was inactive: 0.058.

ACACB (UniProt O00763) was tested. Which log2 fold change did it give?
The log2 fold change was inactive: 0.291.

How did the log2 fold change turn out when AAR2 (UniProt Q9Y312) was run?
Its log2 fold change is inactive: 0.17.

For ACP1 (UniProt P24666), which log2 fold change is on record?
The log2 fold change was inactive: 0.12.

How did the log2 fold change turn out when ACO2 (UniProt Q99798) was run?
The log2 fold change was inactive: -0.034.

With ACIN1 (UniProt Q9UKV3) as the target, how does the log2 fold change read?
The log2 fold change was inactive: -0.017.

AARSD1 (UniProt Q9BTE6) was tested. Which log2 fold change did it give?
Its log2 fold change is inactive: 0.014.

With ADAMTS13 (UniProt Q76LX8) as the target, how does the log2 fold change read?
Its log2 fold change is inactive: -0.021.

With ABHD11 (UniProt Q8NFV4) as the target, how does the log2 fold change read?
The log2 fold change was inactive: 0.02.

How did the log2 fold change turn out when ACTN4 (UniProt K7EJH8) was run?
The log2 fold change was inactive: -0.05.

For ABHD16A (UniProt O95870), which log2 fold change is on record?
The log2 fold change was inactive: -0.017.

ACYP2 (UniProt P14621) was tested. Which log2 fold change did it give?
Its log2 fold change is inactive: -0.112.

For ACADM isoform 2 (UniProt P11310), which log2 fold change is on record?
Its log2 fold change is inactive: -0.024.

Which log2 fold change does the source give for ABITRAM (UniProt Q9NX38) here?
Its log2 fold change is inactive: -0.041.

AAK1 (UniProt Q2M2I8) was tested. Which log2 fold change did it give?
The log2 fold change was inactive: -0.013.

AARSD1 isoform 3 (UniProt Q9BTE6) was tested. Which log2 fold change did it give?
Its log2 fold change is inactive: -0.077.

ACTBL2 (UniProt Q562R1) was tested. Which log2 fold change did it give?
Its log2 fold change is inactive: -0.711.

With ACTG1 (UniProt K7EM38) as the target, how does the log2 fold change read?
The log2 fold change was inactive: -0.152.

How did the log2 fold change turn out when ACTR1B (UniProt P42025) was run?
The log2 fold change was inactive: -0.037.

AARS2 (UniProt Q5JTZ9) was tested. Which log2 fold change did it give?
Its log2 fold change is inactive: 0.008.

How did the log2 fold change turn out when A2ML1 (UniProt A8K2U0) was run?
Its log2 fold change is inactive: -0.212.

With ACSL5 isoform 3 (UniProt Q9ULC5) as the target, how does the log2 fold change read?
The log2 fold change was inactive: 0.005.

Which log2 fold change does the source give for ACSS1 (UniProt Q9NUB1) here?
The log2 fold change was inactive: 0.023.

For ABL1 isoform 2 (UniProt P00519), which log2 fold change is on record?
The log2 fold change was inactive: 0.144.

ABRAXAS1 (UniProt Q6UWZ7) was tested. Which log2 fold change did it give?
Its log2 fold change is inactive: 0.501.

Which log2 fold change does the source give for ACAP2 (UniProt Q15057) here?
Its log2 fold change is inactive: -0.016.

For ACAA2 (UniProt K7ER88), which log2 fold change is on record?
Its log2 fold change is inactive: -0.201.

— the supplement of paper PMC10849652
